Measurements as given in the supplement of paper PMC6411743.
± gives the standard deviation of the averaged measurements. The list shows a part of the results.

By UniProt entry, the sequences of proteins in these tests, tags left out. Where a name states a change or a piece, a line headed by the entry shows the natural chain unless it says otherwise.
UniProt P98194: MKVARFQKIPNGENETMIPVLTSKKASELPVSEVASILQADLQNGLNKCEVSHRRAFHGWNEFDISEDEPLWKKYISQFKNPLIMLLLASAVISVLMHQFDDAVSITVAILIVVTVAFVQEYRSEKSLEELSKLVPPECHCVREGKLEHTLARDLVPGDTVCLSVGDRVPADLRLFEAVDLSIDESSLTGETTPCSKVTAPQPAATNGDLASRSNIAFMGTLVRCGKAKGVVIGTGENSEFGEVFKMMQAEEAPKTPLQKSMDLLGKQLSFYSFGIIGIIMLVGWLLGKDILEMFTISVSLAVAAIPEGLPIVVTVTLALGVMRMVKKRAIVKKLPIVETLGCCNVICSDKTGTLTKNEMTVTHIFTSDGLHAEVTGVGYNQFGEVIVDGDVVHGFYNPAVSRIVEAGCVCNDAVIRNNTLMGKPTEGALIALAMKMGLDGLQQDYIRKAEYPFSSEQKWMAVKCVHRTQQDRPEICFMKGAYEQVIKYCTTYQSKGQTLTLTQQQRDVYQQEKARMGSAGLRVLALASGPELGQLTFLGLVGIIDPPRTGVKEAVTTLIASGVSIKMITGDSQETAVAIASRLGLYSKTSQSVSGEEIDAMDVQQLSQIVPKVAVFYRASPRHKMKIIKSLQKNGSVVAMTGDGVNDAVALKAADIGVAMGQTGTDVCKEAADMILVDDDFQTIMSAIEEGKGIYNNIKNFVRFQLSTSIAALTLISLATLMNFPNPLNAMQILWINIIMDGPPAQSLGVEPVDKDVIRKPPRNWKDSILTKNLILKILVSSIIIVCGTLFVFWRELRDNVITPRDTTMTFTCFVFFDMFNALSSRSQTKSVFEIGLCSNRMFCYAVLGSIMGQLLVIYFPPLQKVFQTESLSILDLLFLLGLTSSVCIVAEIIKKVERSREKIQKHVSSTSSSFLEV
UniProt Q9UFF9, whole entry: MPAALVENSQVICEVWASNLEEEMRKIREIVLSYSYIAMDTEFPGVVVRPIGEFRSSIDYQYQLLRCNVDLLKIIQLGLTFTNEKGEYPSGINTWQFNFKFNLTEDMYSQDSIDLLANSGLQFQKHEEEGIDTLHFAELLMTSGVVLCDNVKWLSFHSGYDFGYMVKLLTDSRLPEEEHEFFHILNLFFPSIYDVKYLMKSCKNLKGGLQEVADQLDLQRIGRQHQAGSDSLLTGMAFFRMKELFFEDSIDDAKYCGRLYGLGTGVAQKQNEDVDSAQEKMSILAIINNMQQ
UniProt Q9BUN8: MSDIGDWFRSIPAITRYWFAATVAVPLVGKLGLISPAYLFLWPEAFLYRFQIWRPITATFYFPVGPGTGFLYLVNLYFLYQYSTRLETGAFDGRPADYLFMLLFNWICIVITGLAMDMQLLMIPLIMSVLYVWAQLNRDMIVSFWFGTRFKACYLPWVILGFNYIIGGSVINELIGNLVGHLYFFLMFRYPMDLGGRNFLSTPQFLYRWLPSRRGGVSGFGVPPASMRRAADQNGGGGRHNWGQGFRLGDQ
UniProt Q9UMS0: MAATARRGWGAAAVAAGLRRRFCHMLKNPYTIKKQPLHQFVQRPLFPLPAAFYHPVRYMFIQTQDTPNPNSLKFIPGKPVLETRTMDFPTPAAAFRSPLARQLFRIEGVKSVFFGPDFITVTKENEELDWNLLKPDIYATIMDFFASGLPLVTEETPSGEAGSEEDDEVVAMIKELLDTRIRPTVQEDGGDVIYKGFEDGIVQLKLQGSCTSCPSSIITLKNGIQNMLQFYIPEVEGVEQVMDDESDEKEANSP
UniProt P48444: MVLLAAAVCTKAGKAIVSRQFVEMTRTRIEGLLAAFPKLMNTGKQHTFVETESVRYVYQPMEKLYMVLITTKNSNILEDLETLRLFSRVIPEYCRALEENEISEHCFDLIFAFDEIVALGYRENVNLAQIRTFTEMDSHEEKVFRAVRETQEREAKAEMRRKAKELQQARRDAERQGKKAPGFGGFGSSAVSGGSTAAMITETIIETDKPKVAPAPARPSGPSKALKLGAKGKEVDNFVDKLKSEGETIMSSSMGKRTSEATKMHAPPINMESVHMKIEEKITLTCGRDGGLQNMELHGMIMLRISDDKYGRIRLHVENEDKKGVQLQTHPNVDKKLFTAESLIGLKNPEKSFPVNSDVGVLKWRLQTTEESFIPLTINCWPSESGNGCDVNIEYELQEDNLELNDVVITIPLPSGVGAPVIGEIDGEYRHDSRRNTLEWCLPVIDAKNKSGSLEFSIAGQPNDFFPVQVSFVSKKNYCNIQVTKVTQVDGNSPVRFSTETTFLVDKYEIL
UniProt P35222, whole entry: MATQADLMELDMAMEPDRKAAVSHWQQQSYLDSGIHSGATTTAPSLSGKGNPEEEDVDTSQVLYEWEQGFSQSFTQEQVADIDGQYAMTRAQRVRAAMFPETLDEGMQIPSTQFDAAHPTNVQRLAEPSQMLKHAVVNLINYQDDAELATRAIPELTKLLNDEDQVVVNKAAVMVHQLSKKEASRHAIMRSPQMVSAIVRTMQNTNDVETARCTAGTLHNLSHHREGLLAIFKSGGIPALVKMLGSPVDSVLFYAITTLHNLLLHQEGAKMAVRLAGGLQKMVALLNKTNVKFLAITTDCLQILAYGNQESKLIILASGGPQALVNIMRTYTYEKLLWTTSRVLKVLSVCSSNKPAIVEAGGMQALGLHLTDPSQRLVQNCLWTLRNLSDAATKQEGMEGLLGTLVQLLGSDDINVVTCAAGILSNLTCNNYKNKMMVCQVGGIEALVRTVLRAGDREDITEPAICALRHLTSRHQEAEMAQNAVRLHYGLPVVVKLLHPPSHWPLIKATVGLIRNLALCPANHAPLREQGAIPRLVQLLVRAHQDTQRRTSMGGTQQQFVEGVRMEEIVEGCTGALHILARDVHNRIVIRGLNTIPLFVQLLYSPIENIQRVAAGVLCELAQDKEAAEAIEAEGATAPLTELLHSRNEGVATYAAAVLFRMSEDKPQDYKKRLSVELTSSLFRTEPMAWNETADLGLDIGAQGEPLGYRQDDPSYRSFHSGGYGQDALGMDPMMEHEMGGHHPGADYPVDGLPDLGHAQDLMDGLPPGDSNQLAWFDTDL
UniProt Q92664: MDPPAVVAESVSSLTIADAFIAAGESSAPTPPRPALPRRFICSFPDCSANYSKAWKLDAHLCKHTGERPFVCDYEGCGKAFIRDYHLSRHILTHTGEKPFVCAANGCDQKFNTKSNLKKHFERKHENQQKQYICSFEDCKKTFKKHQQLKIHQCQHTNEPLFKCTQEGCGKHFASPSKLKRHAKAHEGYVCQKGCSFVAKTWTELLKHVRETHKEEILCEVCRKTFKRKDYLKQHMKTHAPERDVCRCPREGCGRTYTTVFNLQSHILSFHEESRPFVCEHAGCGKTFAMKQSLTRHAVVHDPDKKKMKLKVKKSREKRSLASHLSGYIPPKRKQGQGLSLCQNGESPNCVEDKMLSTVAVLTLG
UniProt O60879: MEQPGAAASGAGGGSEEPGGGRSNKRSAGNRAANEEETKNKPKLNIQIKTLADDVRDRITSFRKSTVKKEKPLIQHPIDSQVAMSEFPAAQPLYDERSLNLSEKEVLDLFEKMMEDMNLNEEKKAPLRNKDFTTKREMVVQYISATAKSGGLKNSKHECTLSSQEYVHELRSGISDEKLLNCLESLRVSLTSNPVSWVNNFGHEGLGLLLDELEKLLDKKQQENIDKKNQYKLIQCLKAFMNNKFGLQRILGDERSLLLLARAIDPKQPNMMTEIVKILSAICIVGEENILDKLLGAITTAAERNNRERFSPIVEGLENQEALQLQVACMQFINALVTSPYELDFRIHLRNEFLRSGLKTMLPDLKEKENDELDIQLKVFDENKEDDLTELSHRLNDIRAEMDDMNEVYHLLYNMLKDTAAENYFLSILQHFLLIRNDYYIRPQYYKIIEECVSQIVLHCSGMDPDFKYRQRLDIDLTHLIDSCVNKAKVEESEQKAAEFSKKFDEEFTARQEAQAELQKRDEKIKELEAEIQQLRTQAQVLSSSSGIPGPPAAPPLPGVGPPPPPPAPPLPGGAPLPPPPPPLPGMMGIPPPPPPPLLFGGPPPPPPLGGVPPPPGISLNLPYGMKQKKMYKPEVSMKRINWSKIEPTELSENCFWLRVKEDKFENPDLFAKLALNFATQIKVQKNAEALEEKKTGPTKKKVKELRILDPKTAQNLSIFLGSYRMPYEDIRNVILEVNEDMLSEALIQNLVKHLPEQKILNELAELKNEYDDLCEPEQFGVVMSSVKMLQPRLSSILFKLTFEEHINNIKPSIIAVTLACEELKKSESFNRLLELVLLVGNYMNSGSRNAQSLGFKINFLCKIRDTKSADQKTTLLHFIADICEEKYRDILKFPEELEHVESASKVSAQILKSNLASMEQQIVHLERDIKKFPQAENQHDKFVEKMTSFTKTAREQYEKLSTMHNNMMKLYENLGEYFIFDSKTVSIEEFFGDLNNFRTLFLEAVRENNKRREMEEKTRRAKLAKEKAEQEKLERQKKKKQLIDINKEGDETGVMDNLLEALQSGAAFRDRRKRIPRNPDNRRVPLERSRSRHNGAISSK
UniProt P49116: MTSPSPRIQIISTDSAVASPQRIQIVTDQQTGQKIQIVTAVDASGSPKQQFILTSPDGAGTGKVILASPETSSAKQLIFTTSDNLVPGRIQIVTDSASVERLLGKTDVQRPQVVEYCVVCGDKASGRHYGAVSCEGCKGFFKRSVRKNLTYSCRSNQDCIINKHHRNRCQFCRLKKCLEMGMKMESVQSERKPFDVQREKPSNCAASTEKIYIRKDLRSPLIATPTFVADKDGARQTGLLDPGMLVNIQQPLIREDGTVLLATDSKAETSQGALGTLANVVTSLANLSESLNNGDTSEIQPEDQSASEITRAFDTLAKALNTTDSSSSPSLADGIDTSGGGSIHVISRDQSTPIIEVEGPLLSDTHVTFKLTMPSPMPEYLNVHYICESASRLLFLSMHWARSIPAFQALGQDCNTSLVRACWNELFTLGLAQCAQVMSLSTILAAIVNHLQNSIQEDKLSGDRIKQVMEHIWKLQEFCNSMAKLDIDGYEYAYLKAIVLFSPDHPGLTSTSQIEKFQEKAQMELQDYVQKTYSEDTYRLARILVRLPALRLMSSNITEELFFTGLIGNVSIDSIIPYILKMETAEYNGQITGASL
UniProt Q14919: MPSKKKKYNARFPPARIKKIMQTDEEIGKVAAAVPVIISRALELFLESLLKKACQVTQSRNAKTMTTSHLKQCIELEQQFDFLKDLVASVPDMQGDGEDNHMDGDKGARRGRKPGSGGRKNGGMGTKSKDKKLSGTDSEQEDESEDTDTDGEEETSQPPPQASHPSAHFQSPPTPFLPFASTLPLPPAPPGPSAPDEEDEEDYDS
UniProt Q9UJU6: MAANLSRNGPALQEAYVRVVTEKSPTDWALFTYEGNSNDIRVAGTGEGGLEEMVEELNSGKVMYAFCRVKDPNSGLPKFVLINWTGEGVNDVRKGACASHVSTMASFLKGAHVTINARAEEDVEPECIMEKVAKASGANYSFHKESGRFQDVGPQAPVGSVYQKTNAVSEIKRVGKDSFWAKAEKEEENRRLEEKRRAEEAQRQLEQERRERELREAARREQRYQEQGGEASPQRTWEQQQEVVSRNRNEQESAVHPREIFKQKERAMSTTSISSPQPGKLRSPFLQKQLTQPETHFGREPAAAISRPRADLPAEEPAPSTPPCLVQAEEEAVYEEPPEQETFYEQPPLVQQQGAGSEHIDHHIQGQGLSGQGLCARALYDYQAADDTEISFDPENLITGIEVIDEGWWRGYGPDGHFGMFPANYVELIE
UniProt Q99719: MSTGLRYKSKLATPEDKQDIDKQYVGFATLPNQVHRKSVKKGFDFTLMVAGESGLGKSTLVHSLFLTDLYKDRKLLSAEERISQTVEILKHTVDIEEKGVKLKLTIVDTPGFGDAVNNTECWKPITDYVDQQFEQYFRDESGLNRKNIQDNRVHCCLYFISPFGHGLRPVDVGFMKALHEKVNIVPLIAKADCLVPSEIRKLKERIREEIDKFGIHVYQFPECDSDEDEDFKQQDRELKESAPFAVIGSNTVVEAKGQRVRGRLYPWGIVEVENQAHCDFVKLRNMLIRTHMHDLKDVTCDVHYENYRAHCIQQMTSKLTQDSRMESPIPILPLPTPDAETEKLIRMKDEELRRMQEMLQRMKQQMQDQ
UniProt Q9UM22: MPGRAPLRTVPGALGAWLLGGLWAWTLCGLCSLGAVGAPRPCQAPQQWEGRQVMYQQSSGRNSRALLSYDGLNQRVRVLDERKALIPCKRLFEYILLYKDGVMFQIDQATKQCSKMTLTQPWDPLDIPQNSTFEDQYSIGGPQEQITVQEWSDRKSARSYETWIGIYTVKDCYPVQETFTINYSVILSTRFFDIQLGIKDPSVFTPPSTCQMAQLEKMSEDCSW
UniProt Q9BQ75: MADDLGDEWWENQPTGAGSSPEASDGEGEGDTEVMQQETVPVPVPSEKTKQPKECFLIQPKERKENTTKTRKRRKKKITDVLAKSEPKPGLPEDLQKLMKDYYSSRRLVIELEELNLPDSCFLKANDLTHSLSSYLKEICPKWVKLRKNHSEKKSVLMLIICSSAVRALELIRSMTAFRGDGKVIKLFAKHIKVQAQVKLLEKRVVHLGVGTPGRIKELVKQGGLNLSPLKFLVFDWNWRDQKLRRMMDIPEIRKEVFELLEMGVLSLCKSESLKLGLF

compound: Nc1nc2c(ncn2[C@@H]2O[C@H](COP(=O)(O)OP(=O)(O)OP(=O)(O)O)[C@@H](O)[C@H]2O)c(=O)[nH]1 [guanosine triphosphate]; assay: NP40-soluble protein abundance relative to vehicle (solubility fold change) (ratio); higher = more soluble protein in presence of GTP; conditions: concentration: 0.1mM
In short: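 Across three independent experiments, values are fold changes against the detergent-processed vehicle for each replicate, based on vsn-normalised intensities. The samples were Jurkat crude lysate treated with eight concentrations (0.1 to 10 mM) for 10 min at room temperature and then 3 min at 37 °C. Lysate was solubilised with 0.8% NP40 and benzonase, ultracentrifuged, and the supernatant analysed by TMT-labelled LC-MS/MS.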

Q: With “C9K025 and related entries (UniProt P18077)” as the target, how does the NP40-soluble protein abundance read?
A: 1.07 ± 0.2

Q: “B4E2Q0 and related entries (UniProt P98194)” was tested. Which NP40-soluble protein abundance did it give?
A: 1.02 ± 0.029

Q: Which NP40-soluble protein abundance does the source give for “B7Z9U0 and related entries (UniProt Q9UFF9)” here?
A: 1.04 ± 0.15

Q: With “B4E1G1 and related entries (UniProt Q9BUN8)” as the target, how does the NP40-soluble protein abundance read?
A: 1.07 ± 0.037

Q: For “C9J8Q1 and related entries (UniProt Q9UMS0)”, which NP40-soluble protein abundance is on record?
A: 0.897 ± 0.086

Q: Which NP40-soluble protein abundance does the source give for “B1AH77 and related entries (UniProt P15153)” here?
A: 0.997 ± 0.028

Q: “B0YIW6 and related entries (UniProt P48444)” was tested. Which NP40-soluble protein abundance did it give?
A: 1.06 ± 0.053

Q: With “B4DGU4 and related entries (UniProt P35222)” as the target, how does the NP40-soluble protein abundance read?
A: 1.04 ± 0.087

Q: Which NP40-soluble protein abundance does the source give for “B7ZBK4 and related entries (UniProt Q92664)” here?
A: 1.05 ± 0.081

Q: “C9J6U3 and related entries (UniProt O60879)” was tested. Which NP40-soluble protein abundance did it give?
A: 0.99 ± 0.043

Q: How did the NP40-soluble protein abundance turn out when “C9J2Y1 and related entries (UniProt P49116)” was run?
A: 1.01 ± 0.05

Q: Which NP40-soluble protein abundance does the source give for “C9JCC6 and related entries (UniProt Q14919)” here?
A: 0.808 ± 0.16

Q: How did the NP40-soluble protein abundance turn out when “B4DDD6 and related entries (UniProt Q9UJU6)” was run?
A: 0.964 ± 0.045

Q: “B4DJ62 and related entries (UniProt Q99719)” was tested. Which NP40-soluble protein abundance did it give?
A: 1.08 ± 0.025

Q: “D6RIH7 and related entries (UniProt Q9UM22)” was tested. Which NP40-soluble protein abundance did it give?
A: 0.918 ± 0.11

Q: “A6NIW2 and related entries (UniProt Q5JSL3)” was tested. Which NP40-soluble protein abundance did it give?
A: 1.06 ± 0.06

Q: With “C9IY68 and related entries (UniProt Q9BQ75)” as the target, how does the NP40-soluble protein abundance read?
A: 0.945 ± 0.058

Q: For “B8ZZU8 and related entries (UniProt Q15370)”, which NP40-soluble protein abundance is on record?
A: 0.892 ± 0.023
